Assay results from publication PMC11169341.
Negatives hold for the conditions tested.

Chains of the proteins cited; added tags and fusions are not shown. Chains listed by the source or under a name are the forms on record and can include a tag or linker. Residues count along the entry.
UniProt P02769, 25-607: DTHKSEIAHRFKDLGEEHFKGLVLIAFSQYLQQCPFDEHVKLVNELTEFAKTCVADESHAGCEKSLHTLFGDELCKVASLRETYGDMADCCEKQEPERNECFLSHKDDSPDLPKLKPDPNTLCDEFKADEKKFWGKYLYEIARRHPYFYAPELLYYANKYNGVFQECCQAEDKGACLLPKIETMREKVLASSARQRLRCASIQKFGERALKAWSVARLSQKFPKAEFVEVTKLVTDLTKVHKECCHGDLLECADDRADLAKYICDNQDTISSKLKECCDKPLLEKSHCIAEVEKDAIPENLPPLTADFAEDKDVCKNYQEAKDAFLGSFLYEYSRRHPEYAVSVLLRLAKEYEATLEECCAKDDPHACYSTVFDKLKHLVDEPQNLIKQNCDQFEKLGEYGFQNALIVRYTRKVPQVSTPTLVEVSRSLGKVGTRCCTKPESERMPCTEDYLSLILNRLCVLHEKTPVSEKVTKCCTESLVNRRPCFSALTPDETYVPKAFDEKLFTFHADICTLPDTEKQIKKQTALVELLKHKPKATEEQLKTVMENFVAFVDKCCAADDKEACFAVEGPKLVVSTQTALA
recombinant human B7-H3 His-tag (R&D 1949-B3-050) (Homo sapiens), one chain, as listed by the source: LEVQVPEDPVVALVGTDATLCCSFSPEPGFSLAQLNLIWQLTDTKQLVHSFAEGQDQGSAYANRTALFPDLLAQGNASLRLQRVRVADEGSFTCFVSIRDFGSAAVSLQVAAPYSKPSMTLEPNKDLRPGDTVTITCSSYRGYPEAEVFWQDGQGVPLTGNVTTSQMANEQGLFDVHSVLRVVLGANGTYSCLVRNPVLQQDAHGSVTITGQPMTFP

Experiments:
[1] = tested on: recombinant human B7-H3 His-tag (R&D 1949-B3-050) (Homo sapiens); assay: western blot (aptamer blot); conditions: SDS-denatured B7H3, biotin aptamer, only 03 detected it; ABB: AWB (composition not given) + 0.1 mg/ml yeast tRNA, 0.1 mg/ml salmon sperm DNA, 5% FBS, 1 mg/ml BSA; 60 min; 0-500 nM aptamer; flow binding assay on ice; commercial protein; protein details: C-terminal His; label: FITC or biotin; single-stranded DNA
BSA = BSA (UniProt P02769); assay: dot blot; conditions: 5% BSA spotted, 100 nM aptamer, same for all five aptamers; ABB: AWB (composition not given) + 0.1 mg/ml yeast tRNA, 0.1 mg/ml salmon sperm DNA, 5% FBS, 1 mg/ml BSA; 60 min; 0-500 nM aptamer; flow binding assay on ice; commercial protein; label: FITC or biotin; single-stranded DNA

TAGGGAAGAGAAGGACATATGATACAGCACGGTATGACGAGTCCATTGTGTGTGCAGCTCGCTAATTGACTAGTACATGACCACTT [VRF-HS_B7H3-01]
binding result [1]: no binding

TAGGGAAGAGAAGGACATATGATATAAGTGACACATCAATCTCATGCGGATGAACCAGTGCGTTTGACTAGTACATGACCACTT [VRF-HS_B7H3-03]
binding result (BSA): no binding

TAGGGAAGAGAAGGACATATGATCGCCCCTCTTTTCGATTTCAAGCTCCTAACCCACACCTCTTTGACTAGTACATGACCACTT [VRF-HS_B7H3-02]
binding result [1]: no binding

TAGGGAAGAGAAGGACATATGATTGAGAAGTCACGCCACTTACCTGCGCTCAAAACCTCAGAATTGACTAGTACATGACCACTT [VRF-HS_B7H3-05]
binding result [1]: no binding

TAGGGAAGAGAAGGACATATGATTGCCCCTGACACTTACACGCCACTATCAAGGCACACGCCATTGACTAGTACATGACCACTT [VRF-HS_B7H3-04]
binding result [1]: no binding
